PubChem BioAssay AID1508597, Cure First, 2020
Shown is an unselected part of the about 2,100 reagents, in one setting of the screen. 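Calls flag viability under 80% in either arm, not effects specific to rucaparib; the reference for percent is not stated.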 Entries without a mark were called inactive. Some reagents were tested in more than one well and are listed for each. Not given: the 100% reference.

- Screen: 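Survival screen with siRNA in ovarian cancer cells derived from patients, with or without rucaparib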 (primary screen)
- Cells: human ovarian carcinoma lines grown from tumours: OCI-P5x (papillary serous) and OCI-C5x (clear cell)
- Reagent: siRNA pool against human genes, 1.25 pmol siRNA per well
- Timing: 72 h or 96 h, depending on the cell culture
- Challenge: rucaparib 20 µM (about IC30) or vehicle, present until read-out
- Rucaparib or vehicle: Vehicle
- Cell line: OCI-C5x (clear cell)
- Measurement: 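ATP luminescence measured at 72 or 96 h according to the culture, then normalised and expressed as percent viability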
- Direction: viability, normalised: higher = more viable cells remaining
- Hit rule: 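a well counts as a hit if its normalised viability is under 80 percent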
- Calls: active = viability under 80%; inactive = viability 80% or more

no.	target	PubChem SID	technical replicate	viability, normalised (%)
1	TRIM28 (tripartite motif containing 28)	SID405526584	1	50 (active)
2	TRIM28 (tripartite motif containing 28)	SID405526584	1	49.8 (active)
3	TRIM28 (tripartite motif containing 28)	SID405526584	2	50.4 (active)
4	TRIM28 (tripartite motif containing 28)	SID405526584	2	36.1 (active)
5	TRIM28 (tripartite motif containing 28)	SID405526584	3	29.5 (active)
6	TRIM28 (tripartite motif containing 28)	SID405526584	3	63.4 (active)
7	HDAC7 (histone deacetylase 7)	SID405526845	1	41.2 (active)
8	HDAC7 (histone deacetylase 7)	SID405526845	2	47.4 (active)
9	HDAC7 (histone deacetylase 7)	SID405526845	3	55 (active)
10	NAP1L5 (nucleosome assembly protein 1 like 5)	SID405527060	1	29.4 (active)
11	NAP1L5 (nucleosome assembly protein 1 like 5)	SID405527060	2	34 (active)
12	NAP1L5 (nucleosome assembly protein 1 like 5)	SID405527060	3	40.7 (active)
13	NAGK (N-acetylglucosamine kinase)	SID405528542	1	53.2 (active)
14	NAGK (N-acetylglucosamine kinase)	SID405528542	2	56.9 (active)
15	NAGK (N-acetylglucosamine kinase)	SID405528542	3	41.2 (active)
16	APEX1 (apurinic/apyrimidinic endodeoxyribonuclease 1)	SID405527967	1	37.9 (active)
17	APEX1 (apurinic/apyrimidinic endodeoxyribonuclease 1)	SID405527967	1	51.4 (active)
18	APEX1 (apurinic/apyrimidinic endodeoxyribonuclease 1)	SID405527967	2	35.3 (active)
19	APEX1 (apurinic/apyrimidinic endodeoxyribonuclease 1)	SID405527967	2	47.2 (active)
20	APEX1 (apurinic/apyrimidinic endodeoxyribonuclease 1)	SID405527967	3	41.7 (active)
21	APEX1 (apurinic/apyrimidinic endodeoxyribonuclease 1)	SID405527967	3	46.7 (active)
22	KDM6B (lysine demethylase 6B)	SID405526942	1	46.6 (active)
23	KDM6B (lysine demethylase 6B)	SID405526942	2	56.1 (active)
24	KDM6B (lysine demethylase 6B)	SID405526942	3	54 (active)
25	WNT4 (Wnt family member 4)	SID405526629	1	48.2 (active)
26	WNT4 (Wnt family member 4)	SID405526629	2	60 (active)
27	WNT4 (Wnt family member 4)	SID405526629	3	70.6 (active)
28	RPS3A (ribosomal protein S3A)	SID405528439	1	22.5 (active)
29	RPS3A (ribosomal protein S3A)	SID405528439	2	25.3 (active)
30	RPS3A (ribosomal protein S3A)	SID405528439	3	29.2 (active)
31	MED7 (mediator complex subunit 7)	SID405526982	1	45.1 (active)
32	MED7 (mediator complex subunit 7)	SID405526982	2	47.5 (active)
33	MED7 (mediator complex subunit 7)	SID405526982	3	54.4 (active)
34	TDRD12 (tudor domain containing 12)	SID405526543	1	64.9 (active)
35	TDRD12 (tudor domain containing 12)	SID405526543	2	48.2 (active)
36	TDRD12 (tudor domain containing 12)	SID405526543	3	60.2 (active)

3 of these entries in another layout:
{"target":"MED7 (mediator complex subunit 7)","PubChem SID":"SID405526982","technical replicate":"1","viability, normalised (%)":"45.1 (active)"}
{"target":"MED7 (mediator complex subunit 7)","PubChem SID":"SID405526982","technical replicate":"2","viability, normalised (%)":"47.5 (active)"}
{"target":"MED7 (mediator complex subunit 7)","PubChem SID":"SID405526982","technical replicate":"3","viability, normalised (%)":"54.4 (active)"}

The listing continues:
no.	target	PubChem SID	technical replicate	viability, normalised (%)
37	CSNK1G2 (casein kinase 1 gamma 2)	SID405527367	1	115
38	CSNK1G2 (casein kinase 1 gamma 2)	SID405527367	2	61.4 (active)
39	CSNK1G2 (casein kinase 1 gamma 2)	SID405527367	3	73.2 (active)
40	MBD6 (methyl-CpG binding domain protein 6)	SID405526974	1	50.8 (active)
41	MBD6 (methyl-CpG binding domain protein 6)	SID405526974	2	50.4 (active)
42	MBD6 (methyl-CpG binding domain protein 6)	SID405526974	3	50 (active)
43	WDR5 (WD repeat domain 5)	SID405526622	1	44.6 (active)
44	WDR5 (WD repeat domain 5)	SID405526622	2	42.2 (active)
45	WDR5 (WD repeat domain 5)	SID405526622	3	31.1 (active)
46	ZZZ3 (zinc finger ZZ-type containing 3)	SID405526661	1	57.7 (active)
47	ZZZ3 (zinc finger ZZ-type containing 3)	SID405526661	2	73.7 (active)
48	ZZZ3 (zinc finger ZZ-type containing 3)	SID405526661	3	62.8 (active)
49	UHMK1 (U2AF homology motif kinase 1)	SID405528582	1	59.6 (active)
50	UHMK1 (U2AF homology motif kinase 1)	SID405528582	2	58.2 (active)
51	UHMK1 (U2AF homology motif kinase 1)	SID405528582	3	76.3 (active)
52	DLG4 (discs large MAGUK scaffold protein 4)	SID405527841	1	47.3 (active)
53	DLG4 (discs large MAGUK scaffold protein 4)	SID405527841	1	41.8 (active)
54	DLG4 (discs large MAGUK scaffold protein 4)	SID405527841	2	42.6 (active)
55	DLG4 (discs large MAGUK scaffold protein 4)	SID405527841	2	43.2 (active)
56	DLG4 (discs large MAGUK scaffold protein 4)	SID405527841	3	45 (active)
57	DLG4 (discs large MAGUK scaffold protein 4)	SID405527841	3	51.9 (active)
